From PMC5963844

Sequences of proteins named here, by UniProt entry; tags and fusion partners are left off. A change or cut given only in a name is not applied to a line headed by its entry.
UniProt P23258: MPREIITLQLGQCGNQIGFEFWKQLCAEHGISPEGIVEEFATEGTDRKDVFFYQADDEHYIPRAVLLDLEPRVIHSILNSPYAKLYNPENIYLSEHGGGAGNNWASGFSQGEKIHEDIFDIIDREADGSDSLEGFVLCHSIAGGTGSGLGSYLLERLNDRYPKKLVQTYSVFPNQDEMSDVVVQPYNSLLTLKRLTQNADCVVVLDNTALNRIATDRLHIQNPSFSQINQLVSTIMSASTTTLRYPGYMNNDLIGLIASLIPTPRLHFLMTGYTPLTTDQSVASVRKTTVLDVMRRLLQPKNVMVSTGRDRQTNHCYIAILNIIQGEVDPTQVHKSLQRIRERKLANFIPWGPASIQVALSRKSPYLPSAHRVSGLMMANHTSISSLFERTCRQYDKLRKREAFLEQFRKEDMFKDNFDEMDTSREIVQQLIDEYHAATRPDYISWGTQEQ

Molecular target: T1, Samp1a–YFP (human) (UniProt Q5SNT2)
T1 sequence: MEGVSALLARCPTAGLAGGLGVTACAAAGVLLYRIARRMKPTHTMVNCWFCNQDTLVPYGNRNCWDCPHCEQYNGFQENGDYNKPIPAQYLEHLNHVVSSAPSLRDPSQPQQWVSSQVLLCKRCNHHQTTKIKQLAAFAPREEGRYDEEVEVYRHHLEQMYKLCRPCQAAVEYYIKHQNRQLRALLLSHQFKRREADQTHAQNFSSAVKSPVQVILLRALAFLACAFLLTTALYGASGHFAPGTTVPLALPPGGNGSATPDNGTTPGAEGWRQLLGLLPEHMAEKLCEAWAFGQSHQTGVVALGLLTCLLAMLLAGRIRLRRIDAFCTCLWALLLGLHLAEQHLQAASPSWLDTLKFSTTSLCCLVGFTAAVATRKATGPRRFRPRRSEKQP
Assay: co-IP; membrane protein cross-link immunoprecipitation (MCLIP): cells synchronised in metaphase, in vivo cross-linking with 1 mM DSP for 15 min, lysis in 7 M urea and 1% Triton X-100, diluted 8x with PBS, Samp1a–YFP captured on GFP trap agarose beads 2 h at 4°C, wash 250 mM NaCl, 10 mM Hepes, 0.5% Triton X-100, pH 7.4, cross-link reversed with DTT, western blot

Substance	binding
β-tubulin (human (endogenous in HeLa))	no binding
γ-tubulin (from UniProt P23258)	binds

Results are given in words; binding and its absence hold for the method and conditions named. In cells and extracts the contact can be indirect. Binding can be weak; no strength is given. Where a sequence is shown, tags or fusion partners need not be part of it.
